Reference: PMC4860965, “A novel role for the tumour suppressor Nitrilase1 modulating the Wnt/β-catenin signalling pathway” (Cell Discovery, 2016)
These are yes or no findings as the source states them, for the method shown. For some of these results: Binding seen in cells or lysates may run through a third protein. Some entries that bind do so weakly or less than the wild type. For some of these results: Where a sequence is shown, tags or fusion partners need not be part of it.

Amino acid sequences for entries named in this document (tags omitted).
UniProt Q9UJU2: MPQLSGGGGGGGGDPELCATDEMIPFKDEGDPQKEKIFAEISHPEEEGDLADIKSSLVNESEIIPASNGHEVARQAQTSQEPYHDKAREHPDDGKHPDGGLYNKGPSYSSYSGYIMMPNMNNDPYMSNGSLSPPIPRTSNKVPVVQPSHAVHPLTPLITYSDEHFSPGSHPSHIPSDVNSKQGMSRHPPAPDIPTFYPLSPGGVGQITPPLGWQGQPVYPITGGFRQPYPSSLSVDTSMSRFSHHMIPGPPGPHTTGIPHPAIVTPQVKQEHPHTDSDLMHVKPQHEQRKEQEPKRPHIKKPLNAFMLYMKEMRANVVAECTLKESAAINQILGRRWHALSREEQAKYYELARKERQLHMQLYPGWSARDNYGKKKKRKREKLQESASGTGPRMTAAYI
UniProt P35222: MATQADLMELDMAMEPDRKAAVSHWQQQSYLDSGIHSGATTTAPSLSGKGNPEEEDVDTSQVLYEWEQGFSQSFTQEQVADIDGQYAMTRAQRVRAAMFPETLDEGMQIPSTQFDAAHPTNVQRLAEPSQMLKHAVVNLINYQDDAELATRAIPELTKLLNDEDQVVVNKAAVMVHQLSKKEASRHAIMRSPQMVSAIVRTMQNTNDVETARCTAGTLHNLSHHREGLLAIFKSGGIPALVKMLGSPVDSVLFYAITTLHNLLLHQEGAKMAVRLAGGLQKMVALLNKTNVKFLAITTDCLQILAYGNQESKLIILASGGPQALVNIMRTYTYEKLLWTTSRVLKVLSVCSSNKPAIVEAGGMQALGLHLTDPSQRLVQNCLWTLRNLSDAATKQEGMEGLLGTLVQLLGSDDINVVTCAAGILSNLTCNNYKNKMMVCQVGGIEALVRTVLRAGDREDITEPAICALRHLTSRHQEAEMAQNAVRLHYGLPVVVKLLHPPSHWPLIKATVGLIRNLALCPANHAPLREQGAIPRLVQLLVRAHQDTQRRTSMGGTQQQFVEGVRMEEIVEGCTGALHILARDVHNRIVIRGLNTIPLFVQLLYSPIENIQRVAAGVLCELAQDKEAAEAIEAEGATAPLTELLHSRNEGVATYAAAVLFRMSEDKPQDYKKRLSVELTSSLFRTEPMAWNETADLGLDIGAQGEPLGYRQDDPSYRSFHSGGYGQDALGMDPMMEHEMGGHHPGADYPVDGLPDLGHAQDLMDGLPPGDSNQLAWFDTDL

Assays:
[1] = target: T1, endogenous hNit1 (human nitrilase1) (human (endogenous in HeLa, HEK-293, HCT116, MCF-7)) (UniProt Q86X76); experiment: co-IP; endogenous proteins, polyclonal anti-Nit1 antibody, HEK-293, HeLa, HCT116 and MCF-7 cells; data not shown
T1 sequence: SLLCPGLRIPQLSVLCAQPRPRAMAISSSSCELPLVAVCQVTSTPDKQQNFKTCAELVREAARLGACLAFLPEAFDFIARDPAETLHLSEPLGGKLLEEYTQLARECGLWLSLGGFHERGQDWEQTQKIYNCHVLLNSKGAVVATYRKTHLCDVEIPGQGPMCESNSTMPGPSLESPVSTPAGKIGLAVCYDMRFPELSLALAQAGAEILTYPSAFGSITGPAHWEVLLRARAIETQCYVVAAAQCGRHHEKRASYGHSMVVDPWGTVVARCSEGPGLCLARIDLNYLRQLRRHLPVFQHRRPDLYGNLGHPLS

[2] = target: T1, endogenous hNit1 (human nitrilase1) (human (endogenous in HeLa, HEK-293, HCT116, MCF-7)); experiment: co-IP; endogenous proteins, HeLa and HEK-293 lysates (500 μg protein), monoclonal anti-nitrilase1 (1C3), 2 h at 4 °C, Protein A Sepharose; western blot
[3] = target: T1, endogenous hNit1 (human nitrilase1) (human (endogenous in HeLa, HEK-293, HCT116, MCF-7)); experiment: proximity ligation; Duolink PLA in MCF-7 cells with monoclonal anti-Nit1 (1C3) and polyclonal anti-β-catenin (M14M); shNit1 knockdown reduced the signals
[4] = target: GST-LEF-1 (UniProt Q9UJU2); experiment: pull-down; GST-LEF-1/β-catenin-His6 complex preformed and isolated on glutathione-agarose beads, washed, incubated with increasing amounts of MBP-hNit1, washed again; beads and supernatant blotted; both purified
[5] = target: T2, Armadillo-3xFLAG (Drosophila) (UniProt P18824); experiment: co-IP; HEK-293 cells transiently transfected, lysed after 48 h (20 mM imidazole pH 8.0, 150 mM NaCl, 2 mM MgCl2, 300 mM sucrose, 0.25% Triton X-100); immunoprecipitation with anti-FLAG M2 pre-bound to Protein A Sepharose; western blot
T2 sequence: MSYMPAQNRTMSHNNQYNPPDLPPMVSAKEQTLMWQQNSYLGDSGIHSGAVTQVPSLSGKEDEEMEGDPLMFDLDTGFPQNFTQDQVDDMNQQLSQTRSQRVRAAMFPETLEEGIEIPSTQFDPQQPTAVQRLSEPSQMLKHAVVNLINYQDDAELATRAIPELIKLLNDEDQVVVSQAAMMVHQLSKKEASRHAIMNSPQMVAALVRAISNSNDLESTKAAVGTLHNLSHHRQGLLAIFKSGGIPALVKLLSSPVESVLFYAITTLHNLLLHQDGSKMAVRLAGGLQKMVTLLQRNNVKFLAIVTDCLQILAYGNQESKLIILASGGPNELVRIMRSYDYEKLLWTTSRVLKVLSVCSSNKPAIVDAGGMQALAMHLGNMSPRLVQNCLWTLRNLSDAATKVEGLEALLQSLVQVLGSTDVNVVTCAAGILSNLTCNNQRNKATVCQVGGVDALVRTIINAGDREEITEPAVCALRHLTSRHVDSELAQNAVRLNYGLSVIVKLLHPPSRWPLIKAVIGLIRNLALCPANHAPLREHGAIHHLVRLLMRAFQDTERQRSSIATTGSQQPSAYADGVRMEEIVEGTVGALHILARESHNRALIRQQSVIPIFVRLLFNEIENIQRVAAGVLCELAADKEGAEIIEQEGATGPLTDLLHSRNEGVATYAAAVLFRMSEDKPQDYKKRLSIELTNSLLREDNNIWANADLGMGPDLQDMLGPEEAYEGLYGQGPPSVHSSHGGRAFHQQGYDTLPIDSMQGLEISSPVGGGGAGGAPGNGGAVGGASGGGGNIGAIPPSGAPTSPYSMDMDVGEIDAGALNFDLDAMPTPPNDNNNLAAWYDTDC

[6] = target: β-catenin-FLAG (UniProt P35222); experiment: as above
[7] = target: T3, GST-Armadillo (Drosophila) (UniProt P18824); experiment: pull-down; 4 μg GST or GST fusion protein with 5 μg MBP fusion protein, 150 mM NaCl, 20 mM imidazole or HEPES pH 8.0, 2 mM MgCl2, 300 mM sucrose, 0.25% Triton X-100, 20 min at 4 °C; glutathione-agarose beads; western blot with anti-MBP; both purified
T3 sequence: T2 sequence

endogenous β-catenin (from UniProt P35222 1-781)
binding [1]: binds
binding [2]: binds
binding [3]: binds

β-catenin-His6 (from UniProt P35222 1-781)
binding [4]: binds

B1: dNitFhit-myc6 (Drosophila NitFhit fusion protein, myc6-tagged) (protein, UniProt O76464 1-460)
chain: MSTLVNTTRRSIVIAIHQQLRRMSVQKRKDQSATIAVGQMRSTSDKAANLSQVIELVDRAKSQNACMLFLPECCDFVGESRTQTIELSEGLDGELMAQYRELAKCNKIWISLGGVHERNDQKIFNAHVLLNEKGELAAVYRKLHMFDVTTKEVRLRESDTVTPGYCLERPVSTPVGQIGLQICYDLRFAEPAVLLRKLGANLLTYPSAFTYATGKAHWEILLRARAIETQCFVVAAAQIGWHNQKRQSWGHSMIVSPWGNVLADCSEQELDIGTAEVDLSVLQSLYQTMPCFEHRRNDIYALTAYNLRSKEPTQDRPFATNIVDKRTIFYESEHCFAFTNLRCVVKGHVLVSTKRVTPRLCGLDCAEMADMFTTVCLVQRLLEKIYQTTSATVTVQDGAQAGQTVPHVHFHIMPRRLGDFGHNDQIYVKLDERAEEKPPRTIEERIEEAQIYRKFLTDIS
binding [5]: binds
binding [6]: binds

B2: MBP-dNitFhit (natural protein, D. melanogaster, UniProt O76464 1-460, looked up)
chain: B1 chain
notes: Drosophila melanogaster NitFhit, amplified from the intronless genomic DNA; source: E. coli XL1 blue or BL21-RE4, purified (amylose resin)
binding [7]: binds
